Drawing on patent publication US20250049852A1, this text covers binding for three molecules.

These are yes or no findings as the source states them, for the method shown. A result given as binding can be weak or reduced; the word gives no strength.

The target of test [1] is monkey-derived GPRC5D overexpressed on CHOS cells (CHOS-macaqueGPRC5D) (macaque (monkey-derived)). In words: FACS titration on CHOS-macaque-GPRC5D cells (upper graph).
Test [2] has the same target. Nature of the test: FACS on CHOS-macaqueGPRC5D cells.

B1: Clone 18, antibody in the IgG form (protein level) (antibody, V domains shown)
VH: QVQLQQWGAGLLKPSETLSLTCAVYGGSFSGYYWSWIRQPPGKGLEWIGEINHSGSTNYNPSLKSRVTISVDTSKNQFSLKLSSVTAADTAVYYCARARRYGGRTRFDPWGQGTLVTVSS
For B1, the binding result in test [1] and in test [2] was “binds” throughout.

B2: Clone 39, antibody in the IgG form (protein level) (antibody, V domains shown)
VH: EVQLLESGGGLVQPGGSLRLSCAASGFIFSSYGMGWVRQAPGKGLEWVSSISSSGDYTYYADSVKGRFTISRDNSKNTLYLQMNSLRAEDTAVYYCARMSFRRYDHWGQGTLVTVSS
B2: the binding result in test [1] and in test [2] was “binds” in each case.

B3: Clone 41, antibody in the IgG form (protein level) (antibody, V domains shown)
VH: EVQLLESGGGLVQPGGSLRLSCAASGFSFSGYIMGWVRQAPGKGLEWVSSTSSSGTETYYADSVKGRFTISRDNSKNTLYLQMNSLRAEDTAVYYCARYYSKYGRSYHVDSWGQGTLVTVSS
Take B3: the binding entry in test [1] and in test [2] was “binds” throughout.
